Results are given in words; binding and its absence hold for the method and conditions named. In cells and extracts the contact can be indirect. Some entries that bind do so weakly or less than the wild type.
Columns and labels:
[1] = target: GST-HrcQ (X. euvesicatoria) (UniProt Q9WWF7); assay: pull-down; GST or GST fusion from E. coli BL21 (DE3) lysate immobilised on glutathione sepharose, washed, incubated with a bacterial lysate containing the c-Myc-tagged partner for 2 h at 4°C; eluted with Laemmli buffer; immunoblot with c-Myc- and GST-specific antibodies; only the target purified
[2] = target: GST-HpaA (X. euvesicatoria) (UniProt Q9WWF9); assay: as above

Protein sequences, listed by entry. Tags and fused reporters are not part of them.
UniProt Q9WWF7: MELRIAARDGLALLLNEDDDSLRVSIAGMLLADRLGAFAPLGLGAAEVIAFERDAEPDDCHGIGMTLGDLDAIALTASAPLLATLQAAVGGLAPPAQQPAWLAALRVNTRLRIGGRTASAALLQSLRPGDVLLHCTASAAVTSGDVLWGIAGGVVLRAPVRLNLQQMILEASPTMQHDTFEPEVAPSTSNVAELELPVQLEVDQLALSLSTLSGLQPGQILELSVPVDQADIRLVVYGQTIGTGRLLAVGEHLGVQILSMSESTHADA
UniProt Q9WWF9: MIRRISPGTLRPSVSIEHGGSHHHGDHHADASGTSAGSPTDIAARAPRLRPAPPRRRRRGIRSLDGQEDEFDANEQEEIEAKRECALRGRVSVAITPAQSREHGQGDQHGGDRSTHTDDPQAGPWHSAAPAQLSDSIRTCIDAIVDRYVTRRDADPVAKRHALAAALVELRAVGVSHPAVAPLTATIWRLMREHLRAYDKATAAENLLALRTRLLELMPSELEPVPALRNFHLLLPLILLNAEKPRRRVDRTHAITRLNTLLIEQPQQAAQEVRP

Substance | binding [1] | binding [2]
HpaA-c-Myc (from UniProt Q9WWF9 1-275) | binds | 
HrcQ-c-Myc (from UniProt Q9WWF7 1-268) |  | binds
